The reference is the same well before dosing, and untreated signal decays as well.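 Fibroblast labels denote human fibroblasts, mainly primary ones from uterus (C12385, HUF), lung (H6013), bone (Hs27A), adrenal (HADF) and skin (WS1), plus mammary HMF and breast cancer-associated Hs343T. Cancer cells are basal-like or mesenchymal-like triple-negative breast cancer lines. A hit is a response shift exceeding 3x replicate standard deviation. The tissue of the other fibroblasts is not given here.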
Tested on: MDAMB436
Experiment: relative JC-1 red fluorescence (viability) vs pre-drug, coculture with fibroblast (fraction); higher = more viable cancer cells
Details: 100 µM
Experimental: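 JC-1 labelled TNBC cells cocultured 1:1 (1,500 cells each) with CellTrace Violet stained primary or stromal fibroblasts in 384-well plates in FluoroBrite medium, treated with one of 42 anticancer drugs at 0.1, 1, 10 or 100 uM. JC-1 red fluorescence (mitochondrial integrity in cancer cells only) was read by plate reader every 8 h for 72 h. Values are normalised to each well's pre-drug value. The stock of one drug was tenfold lower, so its dose labels may be too high.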

C=C1C[C@@H]2[C@H](CC[C@]3(C)C(=O)CC[C@@H]23)[C@@]2(C)C=CC(=O)C=C12 [Exemestane]
relative JC-1 red fluorescence
Details | 8 h | 16 h | 24 h | 32 h | 40 h | 48 h | 56 h | 64 h | 72 h
coculture fibroblast: C12385 | 0.8356 | 0.797 | 0.807 | 0.756 | 0.732 | 0.709 | 0.68414 | 0.6612 | 0.649
coculture fibroblast: H6013 | 0.881 | 0.80636 | 0.794 | 0.779 | 0.764 | 0.776 | 0.735 | 0.718 | 0.676
coculture fibroblast: H6019 | 0.7946 | 0.77 | 0.782 | 0.74 | 0.725 | 0.713 | 0.693 | 0.682 | 0.667
coculture fibroblast: H6076 | 0.813 | 0.711 | 0.724 | 0.7 | 0.669 | 0.6376 | 0.6397 | 0.6296 | 0.6213
coculture fibroblast: H6231 | 0.784 | 0.703 | 0.689 | 0.636 | 0.581 | 0.544 | 0.503 | 0.488 | 0.452
coculture fibroblast: HADF | 0.899 | 0.8635 | 0.8583 | 0.854 | 0.836 | 0.8559 | 0.797 | 0.781 | 0.742
coculture fibroblast: HCFa | 0.848 | 0.848 | 0.842 | 0.822 | 0.805 | 0.826 | 0.763 | 0.751 | 0.698
coculture fibroblast: HCPF | 0.845 | 0.769 | 0.819 | 0.785 | 0.739 | 0.698 | 0.643 | 0.601 | 0.557
coculture fibroblast: HHSteC | 0.878 | 0.848 | 0.839 | 0.815 | 0.8092 | 0.823 | 0.7523 | 0.727 | 0.67
coculture fibroblast: HMF | 0.922 | 0.801 | 0.793 | 0.749 | 0.692 | 0.64 | 0.587 | 0.553 | 0.502
coculture fibroblast: HPFa | 0.904 | 0.88193 | 0.8 | 0.786 | 0.8282 | 0.83281 | 0.754 | 0.762 | 0.704
coculture fibroblast: HUF | 0.8795 | 0.801 | 0.811 | 0.737 | 0.708 | 0.68 | 0.65 | 0.639 | 0.627
coculture fibroblast: Hs5 | 0.825 | 0.736 | 0.742 | 0.691 | 0.663 | 0.613 | 0.606 | 0.577 | 0.562
coculture fibroblast: Hs27A | 0.86982 | 0.8232 | 0.81827 | 0.792 | 0.753 | 0.794 | 0.701 | 0.682 | 0.616
coculture fibroblast: Hs343T | 0.856 | 0.751 | 0.73 | 0.688 | 0.644 | 0.6 | 0.559 | 0.534 | 0.518
coculture fibroblast: WS1 | 0.807 | 0.745 | 0.76032 | 0.7204 | 0.69 | 0.67 | 0.657 | 0.63 | 0.619
